Values from PubChem BioAssay AID652272 (Drosophila RNAi Screening Center, 2013)
The screen tested about 21,000 reagents; below is an unselected part of those that have a named target and a result. Over the whole deposit, 503 (2.4%) were called active. 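Raw plate light values, not normalised; calls rest on replicate z-scores that were not deposited; hits include reporter decreases as well as increases.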 A number with no mark means an inactive call. A plus sign joins genes that one reagent is predicted to hit. No sequences are given here. The record does not give: the amount of reagent, the time to read-out.

Aim: 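Genome-wide knock-down search for components of Hedgehog signalling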 (primary screen)
Cells: Drosophila clone 8 (Cl8) cells
Reagents: long dsRNA against Drosophila genes
Read-out: 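Plate reader light from a firefly reporter under a ptc promoter fragment that responds to Hedgehog, with Renilla light as transfection reference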
Scale: firefly Hh reporter signal: higher = more ptc reporter light; Renilla reference signal: higher = more Renilla control light
Rule for the call: 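Called a hit if the two-replicate mean z-score lies below -2 or above +3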
Meaning of the calls: active = hit: reporter lowered or raised; inactive = not a hit

gene | amplicon | firefly Hh reporter signal, replicate 1 | firefly Hh reporter signal, replicate 2 | firefly Hh reporter signal, replicate 3 | Renilla reference signal, replicate 1 | Renilla reference signal, replicate 2
Ten-a (Tenascin accessory) | DRSC18924 | 6.26e5 | 2.69e5 | – | 36073 | 5700
Ten-a (Tenascin accessory) | DRSC19496 | 60490 | 27552 | – | 3828 | 1108
Ten-a (Tenascin accessory) | DRSC19700 | 77584 | 2.06e5 | – | 2278 | 8418
Ten-a (Tenascin accessory) | DRSC19793 | 1.18e5 | 3.05e5 | – | 2615 | 11847
Ten-a (Tenascin accessory) | DRSC19864 | 71777 | 2.20e5 | – | 1546 | 8951
Ten-a (Tenascin accessory) | DRSC19865 | 65072 | 2.89e5 | – | 1848 | 10560
Ten-a (Tenascin accessory) | DRSC20290 | 85111 | 2.07e5 | – | 2616 | 8902
CG10555 | DRSC17748 | 74388 | 2.73e5 | – | 2640 | 8640
BoYb | DRSC11637 | 1.48e5 | 1.02e5 | – | 5987 | 4406
CG43084 | DRSC09998 | 1.10e5 | – | – | 4848 | 3344
CG15878 | DRSC08486 | 63714 | 34122 | – | 1661 | 2936
Hsp70Bb + Hsp70Bbb | DRSC15885 | 1.23e5 | 1.75e5 | – | 3766 | 4387
Or65b (Odorant receptor 65b) | DRSC08809 | 1.45e5 | 2.72e5 | – | 3756 | 10730
Prosalpha3 (Proteasome alpha3 subunit) | DRSC04644 | 51965 (active) | 33835 | – | 1898 | 4681
bru3 (bruno 3) | DRSC09280 | 7.53e5 | 2.91e5 | 1.44e5 | 7021 | 5043
bru3 (bruno 3) | DRSC09291 | 2.27e5 | – | – | 4672 | –
bru3 (bruno 3) | DRSC09292 | 3.18e5 | – | – | 5728 | –
bru3 (bruno 3) | DRSC09687 | 1.45e5 | 1.11e5 | – | 5885 | 3850
bru3 (bruno 3) | DRSC09887 | 78256 | 30906 | 54583 | 3712 | 3351
bin3 (bicoid-interacting protein 3) | DRSC04919 | 1.17e5 | 50022 | – | 2722 | 3812
CG42404 | DRSC15558 | 80003 | 86595 | – | 3021 | 2410
Mal-A4 (Maltase A4) | DRSC07236 | 75811 | 34560 | – | 1763 | 3058
CG33061 | DRSC09938 | 1.37e5 | – | – | 1508 | 3750
CG3345 | DRSC00596 | 53520 | 61649 | – | 2453 | 2880
AnxB11 (Annexin B11) | DRSC19331 | 79308 | 70464 | – | 1653 | 1293
CG4676 | DRSC06879 | 99194 | 66864 | – | 2923 | 5401
CG13192 | DRSC06317 | 60614 | 64736 | – | 1811 | 4130
MED20 (Mediator complex subunit 20) | DRSC03463 | 60978 | 30582 | – | 1952 | 3173
regucalcin | DRSC18908 | 5.61e5 | 2.03e5 | – | 31148 | 4736
regucalcin | DRSC20366 | 58658 | 2.05e5 | – | 1652 | 7565
CG42262 (retired record) | DRSC17628 | 3.91e5 | 1.30e5 | – | 23541 | 2272
CG42262 (retired record) | DRSC17974 | 78986 | 2.97e5 | – | 1687 | 10189
Lam (Lamin) | DRSC03359 | 55549 | 10416 | – | 885 | 950
abs (abstrakt) | DRSC12372 | 1.23e5 | 91184 | – | 6091 | 4305
CG6138 | DRSC02933 | 75974 | 58395 | – | 1846 | 5341
CG7384 | DRSC03053 | 60945 | 1.34e5 | – | 2912 | 4775
CG4702 | DRSC15626 | 1.13e5 | 1.19e5 | – | 4572 | 4460
gukh (GUK-holder) | DRSC14768 | 4.36e5 | 72265 | – | 24176 | 1808
gukh (GUK-holder) | DRSC15806 | 5.61e5 | 1.18e5 | – | 32482 | 3285
gukh (GUK-holder) | DRSC15944 | 1.23e5 | 61469 | – | 5216 | 2752
xmas | DRSC21306 | 3.60e5 | 1.76e5 | – | 21889 | 8592
CG42855 | DRSC06161 | 1.08e5 | 68665 | – | 2965 | 5173
fl(2)d (female lethal d) | DRSC07620 | 74693 | 53923 | – | 1926 | 4013
sqz (squeeze) | DRSC16980 | 5.47e5 | 69633 | – | 31440 | 2064
CG32379 | DRSC10318 | 38643 | 38791 | – | 5216 | 3329
HLH54F | DRSC07438 | 82077 | 51188 | – | 2666 | 3526
nebu (nebulosa) | DRSC09807 | 1.01e5 | 1.18e5 | – | 3896 | 4535
nebu (nebulosa) | DRSC09808 | 59411 | 44937 | 58828 | 5015 | 5136
CG33159 | DRSC08199 | 6.52e5 | 1.55e5 | – | 6272 | 6272
CG6503 | DRSC16056 | 7.81e5 | 1.34e5 | – | 38101 | 625
CG9815 | DRSC04567 | 83714 | 36300 | – | 2277 | 3965
CG30043 | DRSC06285 | 80992 | 46896 | – | 2024 | 3495
rnh1 (ribonuclease H1) | DRSC07673 | 73813 | 33552 | – | 2184 | 3362
bb8 (big bubble 8) | DRSC15578 | 5.26e5 | 74327 | – | 26811 | 2549
CG32683 | DRSC17990 | 1.14e5 | 1.53e5 | – | 3516 | 6648
CG32683 | DRSC18232 | 1.05e5 | 2.06e5 | – | 3443 | 7997
CG32683 | DRSC18233 | 1.05e5 | 3.39e5 | – | 3732 | 10821
CG11168 | DRSC14292 | 99100 | 86597 | – | 4186 | 3739
CG12934 | DRSC06247 | 71171 | 52935 | – | 1600 | 3827
toy (twin of eyeless) | DRSC17222 | 87325 | 89913 | – | 1777 | 3568
CG13609 | DRSC14612 | 7.46e5 | 1.63e5 | – | 41575 | 5020
CG5614 | DRSC15845 | 1.72e5 | 7.53e5 | 1.66e5 | 5184 | 5191
CG9447 | DRSC05008 | 1.07e5 | 58294 | – | 2356 | 4432
Rift (Riboflavin transporter) | DRSC14330 | 1.07e5 | 2.22e5 | – | 3760 | 8288
Atf-2 + veg (retired record) | DRSC04130 | 1.19e5 | 79768 | – | 5129 | 1544
Atf-2 + veg (retired record) | DRSC04413 | 6.57e5 | 82220 | – | 3862 | 3862
CG1236 | DRSC12203 | 1.59e5 | 1.55e5 | – | 7456 | 5475
CG7409 | DRSC10842 | 49509 | 66444 | – | 5227 | 4346
AhcyL1 (Adenosylhomocysteinase like 1) | DRSC08647 | 78101 | 34773 | – | 2227 | 3050
Dscam2 (Down syndrome cell adhesion molecule 2) | DRSC08869 | 7.05e5 | 1.74e5 | 1.22e5 | 5922 | 4722
Dscam2 (Down syndrome cell adhesion molecule 2) | DRSC10198 | 49805 | 57225 | – | 1072 | 4490
Dscam2 (Down syndrome cell adhesion molecule 2) | DRSC10285 | 15572 | 13092 | – | 2679 | 1242
Dscam2 (Down syndrome cell adhesion molecule 2) | DRSC11018 | 31143 | 51389 | – | 4359 | 5138
Dscam2 (Down syndrome cell adhesion molecule 2) | DRSC11019 | 57769 | 44564 | – | 6992 | 4116

4 entries from above, arranged by “firefly Hh reporter signal, replicate 1”, lowest first.
gene | amplicon | firefly Hh reporter signal, replicate 1 | firefly Hh reporter signal, replicate 2 | firefly Hh reporter signal, replicate 3 | Renilla reference signal, replicate 1 | Renilla reference signal, replicate 2
CG7384 | DRSC03053 | 60945 | 1.34e5 | – | 2912 | 4775
CG4702 | DRSC15626 | 1.13e5 | 1.19e5 | – | 4572 | 4460
gukh (GUK-holder) | DRSC14768 | 4.36e5 | 72265 | – | 24176 | 1808
gukh (GUK-holder) | DRSC15806 | 5.61e5 | 1.18e5 | – | 32482 | 3285
